Test results: paper PMC11523213, “Fluorinated N-Heterocyclic Carbene Silver(I) Complexes with High Cancer Cell Selectivity” (Organometallics, 2024)

Tests used:
[1] = test system: ARPE-19; test: Cell viability (MTT) assay, 24 h, noncancerous cells; format: cell-based; conditions: Homo sapiens, 24 h treatment, n = 9, noncancerous retinal epithelia, read-out: IC50 ± SD, ARPE-19
Description: All cells were treated with compounds for 24 h, and cell viability was determined via the MTT assay. […] The nonfluorinated benzyl–imidazole complex [Ag2(L5)2](PF6)2 was synthesized and screened to determine if the fluorine has any influence on cytotoxicity.
(§1) All cytotoxicity assays were conducted using human cell lines: breast adenocarcinomas (MDA-MB-231 and MCF-7) and non-cancerous epithelial retinal (ARPE-19) cell lines. All cell lines were routinely maintained as monolayer cultures in an appropriate complete medium: MCF-7 and ARPE-19 in high glucose DMEM complete medium (including 10% FBS, 1 mM sodium pyruvate, 2 mM L-glutamine and 1% pen-strep) and MDA-MB-231 in RPMI-1640 complete medium (including 10% FBS, 1 mM sodium pyruvate, 2 mM L-glutamine and 1% pen-strep) and grown in either T-25 or T-75 flasks at 37 °C and 5% CO2. Prior to chemosensitivity studies, cell monolayers were passaged using Trypsin-EDTA (0.05%) and diluted to a concentration of 4 × 10^4 cells/mL. All assays were conducted using 96-well plates, in which 100 μL of the cell suspension was added for 24 h at 37 °C and 5% CO2 and then 100 μL of compound/media dilutions for a further 24 h (compound stocks were made using sterile DMSO at 100 mM prior to dilution and a maximum of 0.1% DMSO used in each assay).

[2] = test system: MCF-7; test: Cell viability (MTT) assay, 24 h; format: cell-based, human
Description: (§2) Cell viability studies were conducted for cisplatin (CDDP), tamoxifen (Tam), ligands HL1(PF6) to H2L5(PF6)2, and Ag(I)-NHC complexes [Ag(L1)2](PF6) to [Ag2(L5)2](PF6)2 against human cell lines: breast adenocarcinomas (MDA-MB-231 and MCF-7) and noncancerous retinal epithelia (ARPE-19). All cells were treated with compounds for 24 h, and cell viability was determined via the MTT assay. The results are depicted in Figure 3a and Table S3 (Supporting Information). […] The corresponding Ag(I)-NHC complexes are all cytotoxic against both the MDA-MB-231 and MCF-7 cell lines. […] The nonfluorinated benzyl–imidazole complex [Ag2(L5)2](PF6)2 was synthesized and screened to determine if the fluorine has any influence on cytotoxicity. When comparing the nonfluorinated complex [Ag2(L5)2](PF6)2 with the corresponding fluorinated complex [Ag2(L3)2](PF6)2, the activity against MCF-7 is statistically similar. However, on comparison of the activities against the MDA-MB-231 cell line, the addition of fluorine improves the activity by >2.4-fold, highlighting that the addition of fluorine can improve cytotoxicity and potentially selectivity toward triple negative breast cancers.
as §1

[3] = test system: MDA-MB-231; test: Cell viability (MTT) assay, 24 h; format: cell-based, human
Description: as §2, §1

## CC/C(=C(\c1ccccc1)c1ccc(OCCN(C)C)cc1)c1ccccc1 [Tam, tamoxifen]
[1]
  IC50: 75 ± 1 µM
[2]; Homo sapiens, MCF7, 24 h treatment, MTT, n = 9, read-out: IC50 ± SD, MCF-7
  IC50: 36 ± 1 µM
[2]; SI > 1 indicates selectivity for the breast cancer line, * = minimum value
  Selectivity index (SI) MCF-7 vs ARPE-19: 2.08
[3]; Homo sapiens, MDA-MB-231, 24 h treatment, MTT, n = 9, read-out: IC50 ± SD, MDA-MB-231
  IC50: 39.59 ± 0.06 µM
[3]; SI > 1 indicates selectivity for the breast cancer line
  Selectivity index (SI) MDA-MB-231 vs ARPE-19: 1.89
[3]; ratio of IC50 MCF-7 versus MDA-MB-231
  MCF-7/MDA-MB-231 SR (selectivity ratio): 0.91
